In publication doi:10.1101/2021.02.14.429938:
No constants are given. Whether binding was seen depends on the method and setting. In cells and extracts the contact can be indirect. Some binding calls cover weakened binding; strength is not graded here. Sequences can lack the tags named with a protein.

Target: T1, Stag1 (mouse (endogenous in E14 ES cells)), Q9D3E6
T1 chain: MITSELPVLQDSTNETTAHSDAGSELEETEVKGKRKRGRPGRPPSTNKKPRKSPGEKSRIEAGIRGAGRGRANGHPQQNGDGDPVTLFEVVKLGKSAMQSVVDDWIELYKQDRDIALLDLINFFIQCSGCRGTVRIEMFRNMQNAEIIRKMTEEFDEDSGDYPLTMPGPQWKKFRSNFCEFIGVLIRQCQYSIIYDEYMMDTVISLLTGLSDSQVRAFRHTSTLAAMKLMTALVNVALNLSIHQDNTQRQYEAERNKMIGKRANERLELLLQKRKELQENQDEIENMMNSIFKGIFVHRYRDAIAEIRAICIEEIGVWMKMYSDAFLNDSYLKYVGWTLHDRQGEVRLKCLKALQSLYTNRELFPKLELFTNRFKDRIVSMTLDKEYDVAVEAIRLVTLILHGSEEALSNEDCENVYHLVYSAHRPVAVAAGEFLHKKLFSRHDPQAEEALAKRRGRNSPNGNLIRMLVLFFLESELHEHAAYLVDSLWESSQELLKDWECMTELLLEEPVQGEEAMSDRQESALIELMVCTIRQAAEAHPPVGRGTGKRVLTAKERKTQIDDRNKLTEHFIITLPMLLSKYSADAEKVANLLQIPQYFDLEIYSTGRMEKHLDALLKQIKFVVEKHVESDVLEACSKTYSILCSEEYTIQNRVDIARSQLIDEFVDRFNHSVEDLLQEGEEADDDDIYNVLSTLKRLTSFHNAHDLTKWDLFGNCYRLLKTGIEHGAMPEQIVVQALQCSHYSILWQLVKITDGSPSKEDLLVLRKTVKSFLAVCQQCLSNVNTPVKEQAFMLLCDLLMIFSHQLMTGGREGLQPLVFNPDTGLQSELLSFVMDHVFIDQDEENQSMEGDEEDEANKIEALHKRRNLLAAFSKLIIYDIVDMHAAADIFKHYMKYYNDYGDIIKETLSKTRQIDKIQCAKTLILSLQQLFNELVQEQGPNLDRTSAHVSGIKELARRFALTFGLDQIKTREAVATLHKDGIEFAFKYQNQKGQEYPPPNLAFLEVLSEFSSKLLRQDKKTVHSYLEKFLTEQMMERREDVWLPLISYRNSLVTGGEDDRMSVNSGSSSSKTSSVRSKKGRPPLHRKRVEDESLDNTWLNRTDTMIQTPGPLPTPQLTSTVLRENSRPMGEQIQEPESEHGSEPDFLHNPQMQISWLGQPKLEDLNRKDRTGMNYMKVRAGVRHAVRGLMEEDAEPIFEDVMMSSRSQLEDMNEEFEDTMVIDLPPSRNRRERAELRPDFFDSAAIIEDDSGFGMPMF
Experiment: co-IP
Details: remark: other sources report otherwise

binding: binds
B1: Smc3, Q9CW03 1-1217 (protein)
chain: MYIKQVIIQGFRSYRDQTIVDPFSSKHNVIVGRNGSGKSNFFYAIQFVLSDEFSHLRPEQRLALLHEGTGPRVISAFVEIIFDNSDNRLPIDKEEVSLRRVIGAKKDQYFLDKKMVTKNDVMNLLESAGFSRSNPYYIVKQGKINQMATAPDSQRLKLLREVAGTRVYDERKEESISLMKETEGKREKINELLKYIEERLHTLEEEKEELAQYQKWDKMRRALEYTIYNQELNETRAKLDELSAKRETSGEKSRQLRDAQQDARDKMEDIERQVRELKTKISAMKEEKEQLSAERQEQIKQRTKLELKAKDLQDELAGNSEQRKRLLKERQKLLEKIEEKQKELAETEPKFNSVKEKEERGIARLAQATQERTDLYAKQGRGSQFTSKEERDKWIKKELKSLDQAINDKKRQIAAIHKDLEDTEANKEKNLEQYNKLDQDLNEVKARVEELDRKYYEVKNKKDELQSERNYLWREENAEQQALAAKREDLEKKQQLLRAATGKAILNGIDSINKVLEHFRRKGINQHVQNGYHGIVMNNFECEPAFYTCVEVTAGNRLFYHIVDSDEVSTKILMEFNKMNLPGEVTFLPLNKLDVRDTAYPETNDAIPMISKLRYNPRFDKAFKHVFGKTLICRSMEVSTQLARAFTMDCITLEGDQVSHRGALTGGYYDTRKSRLELQKDVRKAEEELGELEAKLNENLRRNIERINNEIDQLMNQMQQIETQQRKFKASRDSILSEMKMLKEKRQQSEKTFMPKQRSLQSLEASLHAMESTRESLKAELGTDLLSQLSLEDQKRVDALNDEIRQLQQENRQLLNERIKLEGIITRVETYLNENLRKRLDQVEQELNELRETEGGTVLTATTSELEAINKRVKDTMARSEDLDNSIDKTEAGIKELQKSMERWKNMEKEHMDAINHDTKELEKMTNRQGMLLKKKEECMKKIRELGSLPQEAFEKYQTLSLKQLFRKLEQCNTELKKYSHVNKKALDQFVNFSEQKEKLIKRQEELDRGYKSIMELMNVLELRKYEAIQLTFKQVSKNFSEVFQKLVPGGKATLVMKKGDVEGSQSQDEGEGSGESERGSGSQSSVPSVDQFTGVGIRVSFTGKQGEMREMQQLSGGQKSLVALALIFAIQKCDPAPFYLFDEIDQALDAQHRKAVSDMIMELAVHAQFITTTFRPELLESADKFYGVKFRNKVSHIDVITAEMAKDFVEDDTTHG
